Counter-ions that a name gives are not always drawn. The whole screen tested about 5,300 compounds, of which about 130 (2.5%) showed an effect of 50% or more. The list shows a part of the results.
Tested on: M. mycetomatis strain mm55
Details: primary screen, metabolic activity vs growth control; 96 h, 2 µM; inhibitor

SMILES | % viability
Nc1cccc(CNC(=O)c2ccc(Oc3ccc(OCc4cccc(F)c4)cc3)nc2)c1 [ONC0000110, ym244769] | 77.61%
NS(=O)(=O)c1cc(-c2nnn[nH]2)c(NCc2cccs2)cc1Cl [ONC0003384, azosemide] | 89.97%
COc1cc(NC(C)CCCN)c2ncccc2c1 (stereo not drawn) [ONC0000510, primaquine phosphate] | 72.54%
CCCCC1(COC(=O)CCC(=O)O)C(=O)N(c2ccccc2)N(c2ccccc2)C1=O [ONC0002226, suxibuzone] | 90.86%
CC(C)(Sc1ccncc1-c1ccc(C#N)c2ccccc12)C(=O)O [ONC0001369, verinurad] | 69.39%
O=c1[nH]c(=O)n([C@H]2C[C@H](O)[C@@H](CO)O2)cc1Br [ONC0001774, 5brdu] | 105.2%
C[S+]([O-])CCCCN=C=S (stereo not drawn) [ONC0003262, sulforaphane] | 49.62%
Cc1[nH]cnc1-c1ccc(Cl)cc1 [ONC0003829, lofemizole] | 66.9%
OC(CN1CCN(c2cccc(Cl)c2)CC1)C(c1ccccc1)c1ccccc1 (stereo not drawn) [ONC0000032, brl15572] | 128.1%
CCn1cc(C(=O)O)c(=O)c2ccc(-c3ccncc3)cc21 [ONC0003664, 1ethyl4oxo74pyridyl14dihydroquinoline3carboxylic acid] | 82.72%
O=c1[nH]c2ccc(Cl)cc2c(N[C@@H]2CN3CCC2CC3)c1-c1nc2ccccc2[nH]1 [ONC0005051, chir124] | 85.58%
Cc1cnc(NC(=O)c2cc(Oc3cnc(C(=O)N(C)C)nc3)c3cc(C)oc3c2)cn1 [ONC0005563, pf04937319] | 103.7%
CCCCCCCCCCCCCCCCOc1nc2ccc(C)cc2c(=O)o1 [ONC0003789, cetilistat] | 70.18%
C/C(=C\c1ccc(C(=O)O)cc1)c1ccc2c(c1)C(C)(C)CCC2(C)C [ONC0000103, ttnpb] | 107.5%
COc1ccc(-c2ccc3c(N4CCOCC4)nc(N4C[C@@H](C)O[C@@H](C)C4)nc3n2)cc1CO [ONC0004694, ku0063794] | 105%
Oc1ccc2c(c1)CC[C@H](c1ccccc1)[C@@H]2c1ccc(OCCN2CCCC2)cc1 [ONC0000907, lasofoxifene tartrate] | 82.51%
Cc1cc(-c2ccccc2)nnc1NCCN1CCOCC1 [ONC0000640, minaprine hydrochloride] | 108.7%
CC(C)(Sc1ccc(CCN(CCCCC2CCCCC2)C(=O)NC2CCCCC2)cc1)C(=O)O [ONC0003356, gw7647] | 78%
CSc1ccc2c(c1)N(CCC1CCCCN1C)c1ccccc1S2 (stereo not drawn) [ONC0000545, thioridazine hydrochloride] | 95.22%
CC(CN(C)C)CN1c2ccccc2Sc2ccc(C#N)cc21 (stereo not drawn) [ONC0005518, cyamemazine] | 108.9%
CCC1(c2ncc[nH]2)Cc2ccccc2O1 (stereo not drawn) [ONC0001573, ku14r] | 68.55%

SMILES | % viability
Cc1nnc(C[C@@H]2C=C(c3ccc(Cl)cc3)c3ccccc3-n3c(C)nnc32)o1 [ONC0000996, betbay 002] | 80.87%
CC1=C(/C=C/C(C)=C/C=C/C(C)=C\C(=O)O)C(C)(C)CCC1 [ONC0000582, isotretinon] | 176.9%
CC/C(=C(/CC)c1ccc(O)cc1)c1ccc(O)cc1 [ONC0003197, diethylstilbestrol] | 93.2%
Cc1cc(Nc2nc(N[C@@H](C)c3ccc(F)cc3)c(C#N)cc2F)n[nH]1 [ONC0005220, az 960] | 143.3%
CC(/C=C/C(=O)NO)=C\[C@@H](C)C(=O)c1ccc(N(C)C)cc1 [ONC0002217, trichostatin a] | 57.9%
O=C1C=CC(=O)C2=C1C1c3ccccc3C2c2ccccc21 [ONC0002508, inca6] | 72.54%
O=C(NC1CCN(Cc2ccccc2)CC1)c1ccc(I)cc1 [ONC0003079, 4ibp] | 71.08%
Cn1cc(-c2cc(Oc3cc(F)c(NC(=O)C4(C(=O)Nc5ccccc5)CC4)cc3F)ccn2)cn1 [ONC0004293, ckitin1] | 61.52%
CCOC(=O)c1c(CSc2ccccc2)n(C)c2cc(Br)c(O)c(CN(C)C)c12 [ONC0000725, arbidol hydrochloride] | 91.51%
CCN1CCN(Cc2ccc(-c3cc4c(N[C@H](C)c5ccccc5)ncnc4[nH]3)cc2)CC1 [ONC0000250, aee788] | 77.84%
C=C(C)C1CC=C(CO)CC1 (stereo not drawn) [ONC0003761, perillylalcohol] | 89.33%
Cc1nc(Nc2ncc(C(=O)Nc3c(C)cccc3Cl)s2)cc(N2CCN(CCO)CC2)n1 [ONC0004707, dasatinib] | 111.5%
CCN(CCO)CCCC(C)Nc1ccnc2cc(Cl)ccc12 (stereo not drawn) [ONC0002421, hydroxychloroquine sulfate] | 65.71%
COc1cc(N2CCC(N3CCN(C)CC3)CC2)ccc1Nc1ncnc(Nc2ccccc2S(=O)(=O)C(C)C)n1 [ONC0000148, asp3026] | 91.78%
NC(=O)c1cn([C@@H]2O[C@H](CO)[C@@H](O)[C@H]2O)c2ncnc(N)c2c1=O [ONC0002494, api1] | 68.56%
CON [ONC0003661, methoxyamine] | 87.65%
O=C(OCC(COC(=O)c1cccnc1)(COC(=O)c1cccnc1)COC(=O)c1cccnc1)c1cccnc1 [ONC0003812, niceritrol] | 67.71%
CC(=O)N[C@H]1[C@@H](OC(C)C)O[C@H](COC(C)=O)[C@@H](OC(C)=O)[C@@H]1OC(C)=O [ONC0003039, c34] | 122%
Oc1cc2c(cc1O)[C@@H]1c3ccc(O)c(O)c3OC[C@]1(O)C2 [ONC0005264, hematoxylin hydroxybrazilin] | 118%
CC(C(=O)O)c1ccc2c(c1)CC(=O)c1ccccc1S2 (stereo not drawn) [ONC0005237, zaltoprofen] | 110.5%
CN(C)c1ccc(C(=C2C=CC(=[N+](C)C)C=C2)c2ccc(N(C)C)cc2)cc1 [ONC0000415, gentian violet] | 35.99%

SMILES | % viability
CCn1cnc2c(Nc3cccc(Cl)c3)nc(N[C@@H]3CCCC[C@@H]3N)nc21 [ONC0001362, cgp74514] | 81.23%
O=c1ccn([C@@H]2O[C@H](COP(=O)(O)OP(=O)(O)OP(=O)(O)O)[C@@H](O)[C@H]2O)c(=O)[nH]1 [ONC0002228, uridine triphosphate] | 66.98%
Cc1nc(-c2ccc(OCC(C)C)c(C#N)c2)sc1C(=O)O [ONC0003903, febuxostat] | 64.27%
Clc1ccc(N2CCN(Cc3c[nH]c4ncccc34)CC2)cc1 [ONC0001640, l745870] | 61.2%
C[C@@H](O)[C@H]1C(=O)N2C(C(=O)[O-])=C(SC3Cn4cnc[n+]4C3)[C@H](C)[C@H]12 (stereo partly drawn) [ONC0000906, biapenem] | 70.93%
CN1CCN(c2ccc3ccccc3n2)CC1 [ONC0001376, nmethylquipazine] | 74.77%
CN(C)CCn1cc(S(=O)(=O)c2cccc(F)c2)c2cccnc21 [ONC0002868, way 208466 dihydrochloride] | 131.1%
CCCCc1ccc(O)cc1O [ONC0003242, rucinol] | 107.9%
Nc1sc2c(c1C(=O)c1ccc(Cl)cc1)CCCC2 [ONC0003840, t62] | 57.88%
c1ccc2nc(C3=NCCN3)ccc2c1 [ONC0001460, bu224] | 71.14%
Cc1ccc2c(=O)c3cccc(CC(=O)O)c3oc2c1C [ONC0004842, dmxaa vadimezan] | 122.8%
O=C(O)CCC/C=C\C[C@@H]1[C@@H](/C=C/[C@@H](O)COc2cccc(Cl)c2)[C@H](O)C[C@@H]1O [ONC0003627, cloprostenol] | 51.71%
N[C@@]1(C(=O)O)CS(=O)(=O)[C@H]2[C@H](C(=O)O)[C@H]21 [ONC0004427, ly2140023 ly404039] | 119.9%
NCCCNCCSP(=O)(O)O [ONC0002855, amifostine] | 103.3%
COc1cc(CC2NCCc3cc(O)c(O)cc32)cc(OC)c1OC (stereo not drawn) [ONC0002165, trimethoquinol] | 66.75%
O=C(Nc1cccc2cccnc12)c1ccc(N2C(=O)[C@@H]3[C@H](C2=O)[C@@H]2C=C[C@H]3C2)cc1.O=C(Nc1cccc2cccnc12)c1ccc(N2C(=O)[C@@H]3[C@H](C2=O)[C@@H]2C=C[C@H]3C2)cc1 [ONC0001552, endoiwr1] | 105.7%
CCOC(=O)NNc1nncc2ccccc12 [ONC0000677, todralazine hydrochloride] | 89.33%
COc1cc(/C=C/c2ccc(OC)cc2OC)cc(OC)c1 [ONC0001445, tms] | 52.75%
CCCCN1CCCCC1C(=O)Nc1c(C)cccc1C (stereo not drawn) [ONC0002334, bupivacaine hydrochloride] | 105.3%
CO/N=C1\C[C@]2(C[C@@H]3C[C@@H](C/C=C(\C)C[C@@H](C)/C=C/C=C4\CO[C@@H]5[C@H](O)C(C)=C[C@@H](C(=O)O3)[C@]45O)O2)O[C@H](/C(C)=C/C(C)C)[C@H]1C [ONC0003943, moxidectin] | 74.87%
Cc1oc2nc3c(c(NC(=O)CN4CCCC4=O)c2c1C)CCCC3 [ONC0001218, coluracetam] | 81.81%

A second format for some results above.
SMILES	% viability
Clc1ccc(N2CCN(Cc3c[nH]c4ncccc34)CC2)cc1 [ONC0001640, l745870]	61.2%
CN(C)CCn1cc(S(=O)(=O)c2cccc(F)c2)c2cccnc21 [ONC0002868, way 208466 dihydrochloride]	131.1%
Cc1ccc2c(=O)c3cccc(CC(=O)O)c3oc2c1C [ONC0004842, dmxaa vadimezan]	122.8%
O=C(Nc1cccc2cccnc12)c1ccc(N2C(=O)[C@@H]3[C@H](C2=O)[C@@H]2C=C[C@H]3C2)cc1.O=C(Nc1cccc2cccnc12)c1ccc(N2C(=O)[C@@H]3[C@H](C2=O)[C@@H]2C=C[C@H]3C2)cc1 [ONC0001552, endoiwr1]	105.7%

— publication PMC12670160, “A drug-repurposing screen of FDA- and EMA-approved drugs identifies two NF-κB inhibitors active against eumycetoma” (Journal of Antimicrobial Chemotherapy, 2025)
